PubChem BioAssay AID686937, Drosophila RNAi Screening Center | 2013

- Aim: 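Genes whose loss weakens secretory pathway function in fly cells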 (primary screen)
- Cell system: Drosophila S2 cells expressing secreted horseradish peroxidase
- Reagent: long dsRNA against Drosophila genes
- Time to read-out: about 5.5 days (5 days dsRNA, then 12 h reporter induction)
- Treatment: reporter expression induced after 5 days of dsRNA, read 12 h later; inducer not stated
- Read-out: 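After 5 days of dsRNA and 12 h of reporter induction, medium peroxidase read by chemiluminescence and scored as per-plate z-score; higher values mean more reporter released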
- Direction: z-score: higher = more reporter secreted into medium
The screen tested about 23,000 reagents; this is a random part of those that have a named target and a result. 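Reduced-secretion tags in replicate 1 do not always agree with the z-scores; no criterion for assigning the tags was given.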 The numbers tell different reagents against one gene apart. Not all columns of the deposit are shown. No sequences are given here. Not stated in the record: the amount of reagent.

| gene | reagent | z-score, replicate 1 | z-score, replicate 2 |
| --- | --- | --- | --- |
| CCT7 | 1 | -0.16 | -1.39 |
| Ube4A | 1 | 0.02 | 0.16 |
| Ndc1 | 1 | -0.19 | -0.31 |
| Dhc62B | 1 | 0.22 | 0.27 |
| Nep2 | 1 | 0.35 | 0.44 |
| Nep2 | 2 | 0.23 | -0.02 |
| scrt | 1 | -2.52 | -2.22 |
| CG3701 (retired record) | 1 | 0.19 | 0.21 |
| CG3701 (retired record) | 2 | 0.46 | 0.43 |
| Rab26 | 1 | 0.36 | 0.49 |
| Rab26 | 2 | 0.47 | 0.49 |
| Rab26 | 3 | 0.31 | 0.45 |
| CG12538 | 1 | -0.78 | 0.18 |
| CG31104 | 1 | 0.24 | 0.29 |
| Myb | 1 | -0.86 | -1.35 |
| Muc11A | 1 | 0.21 | 0.28 |
| fwd | 1 | 0.13 | 0.35 |
| rdog | 1 | 0.39 | 0.14 |
| CG4496 | 1 | 0.19 | -0.05 |
| Camp | 1 | 0.44 | 0.2 |
| slgA | 1 | 0.2 | 0.24 |
| scramb1 | 1 | 0.51 | 0.28 |
| scramb1 | 2 | 0.44 | 0.24 |
| scramb1 | 3 | 0.48 | 0.44 |
| CR43105 | 1 | -1.69 | -0.77 |
| alphaKap4 | 1 | 0.27 | 0.44 |
| Rab1 | 1 | -6.03 | -6.85 |
| CG11030 | 1 | -0.51 | -0.17 |
| spir | 1 | 0.42 | 0.41 |
| CG33489 | 1 | 0.33 | 0.24 |
| CG10804 | 1 | 0.48 | 0.32 |
| COX5A | 1 | -0.19 | -0.43 |
| fd96Ca | 1 | 0.32 | 0.26 |
